The other results are listed elsewhere or left out. Small differences around the control level are noise.
compound: CC1(C)S[C@@H]2[C@H](NC(=O)[C@H](N)c3ccccc3)C(=O)N2[C@H]1C(=O)O [ampicillin]; assay: log2 fold change of tryptic peptide abundance, ligand vs vehicle (limited proteolysis) (log2 ratio); higher = more trypsin-susceptible (destabilized); details: ligand concentration: 10 uM; sample: E. coli crude lysate

The chains behind the UniProt entries cited, without tags or fusion partners. Where a name states a change or a piece, a line headed by the entry shows the natural chain unless it says otherwise.
UniProt P52133: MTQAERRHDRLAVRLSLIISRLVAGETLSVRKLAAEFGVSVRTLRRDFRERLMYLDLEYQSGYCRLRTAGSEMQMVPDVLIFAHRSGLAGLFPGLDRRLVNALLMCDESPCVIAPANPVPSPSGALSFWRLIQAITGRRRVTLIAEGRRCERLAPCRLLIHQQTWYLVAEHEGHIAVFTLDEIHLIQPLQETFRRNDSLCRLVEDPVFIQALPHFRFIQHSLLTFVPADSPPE
UniProt P52044: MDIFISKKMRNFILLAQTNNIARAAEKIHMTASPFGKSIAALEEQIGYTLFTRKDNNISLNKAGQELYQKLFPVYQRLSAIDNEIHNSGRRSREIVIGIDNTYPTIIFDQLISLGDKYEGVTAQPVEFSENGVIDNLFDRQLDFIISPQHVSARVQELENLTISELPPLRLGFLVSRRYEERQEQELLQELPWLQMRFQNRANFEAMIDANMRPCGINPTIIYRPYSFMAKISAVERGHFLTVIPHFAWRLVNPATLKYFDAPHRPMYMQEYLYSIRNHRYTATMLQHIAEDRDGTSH
UniProt P75785: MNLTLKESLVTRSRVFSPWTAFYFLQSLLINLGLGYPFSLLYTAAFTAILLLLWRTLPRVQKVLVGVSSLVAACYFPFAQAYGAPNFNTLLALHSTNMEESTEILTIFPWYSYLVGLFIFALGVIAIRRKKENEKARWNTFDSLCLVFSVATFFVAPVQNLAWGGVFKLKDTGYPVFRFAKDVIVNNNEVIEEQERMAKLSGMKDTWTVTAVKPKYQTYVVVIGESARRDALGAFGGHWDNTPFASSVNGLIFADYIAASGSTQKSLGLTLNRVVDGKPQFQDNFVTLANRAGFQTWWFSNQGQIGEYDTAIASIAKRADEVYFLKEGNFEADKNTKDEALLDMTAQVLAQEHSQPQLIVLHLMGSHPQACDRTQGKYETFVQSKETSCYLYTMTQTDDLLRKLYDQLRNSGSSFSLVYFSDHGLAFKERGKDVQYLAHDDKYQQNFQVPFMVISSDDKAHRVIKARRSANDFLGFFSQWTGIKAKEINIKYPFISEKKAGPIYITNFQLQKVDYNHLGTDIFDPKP
UniProt P52101: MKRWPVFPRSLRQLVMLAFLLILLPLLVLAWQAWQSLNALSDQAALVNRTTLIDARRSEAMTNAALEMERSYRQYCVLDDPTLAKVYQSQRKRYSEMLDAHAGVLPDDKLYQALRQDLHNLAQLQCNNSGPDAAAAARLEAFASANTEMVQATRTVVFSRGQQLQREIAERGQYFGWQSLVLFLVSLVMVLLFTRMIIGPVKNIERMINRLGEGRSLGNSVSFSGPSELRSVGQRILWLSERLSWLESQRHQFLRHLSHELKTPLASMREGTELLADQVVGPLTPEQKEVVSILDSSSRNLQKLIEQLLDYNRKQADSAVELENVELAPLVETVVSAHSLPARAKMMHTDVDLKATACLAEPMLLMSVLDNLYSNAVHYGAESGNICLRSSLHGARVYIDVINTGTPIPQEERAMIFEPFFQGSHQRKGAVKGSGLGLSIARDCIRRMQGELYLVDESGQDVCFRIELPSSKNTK
UniProt P45955: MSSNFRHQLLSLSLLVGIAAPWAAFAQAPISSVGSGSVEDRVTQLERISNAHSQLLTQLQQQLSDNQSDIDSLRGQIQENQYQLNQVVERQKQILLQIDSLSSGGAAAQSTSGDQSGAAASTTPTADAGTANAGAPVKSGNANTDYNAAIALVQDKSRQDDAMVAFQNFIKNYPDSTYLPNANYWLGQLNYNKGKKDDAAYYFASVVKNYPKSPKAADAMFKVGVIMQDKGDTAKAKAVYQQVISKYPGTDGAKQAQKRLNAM
UniProt P61517: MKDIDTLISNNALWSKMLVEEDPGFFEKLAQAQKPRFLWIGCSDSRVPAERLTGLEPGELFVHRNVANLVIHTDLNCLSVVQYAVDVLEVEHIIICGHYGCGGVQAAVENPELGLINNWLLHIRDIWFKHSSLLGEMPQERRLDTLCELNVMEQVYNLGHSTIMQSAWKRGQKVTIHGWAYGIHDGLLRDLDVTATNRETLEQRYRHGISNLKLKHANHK
UniProt P55138: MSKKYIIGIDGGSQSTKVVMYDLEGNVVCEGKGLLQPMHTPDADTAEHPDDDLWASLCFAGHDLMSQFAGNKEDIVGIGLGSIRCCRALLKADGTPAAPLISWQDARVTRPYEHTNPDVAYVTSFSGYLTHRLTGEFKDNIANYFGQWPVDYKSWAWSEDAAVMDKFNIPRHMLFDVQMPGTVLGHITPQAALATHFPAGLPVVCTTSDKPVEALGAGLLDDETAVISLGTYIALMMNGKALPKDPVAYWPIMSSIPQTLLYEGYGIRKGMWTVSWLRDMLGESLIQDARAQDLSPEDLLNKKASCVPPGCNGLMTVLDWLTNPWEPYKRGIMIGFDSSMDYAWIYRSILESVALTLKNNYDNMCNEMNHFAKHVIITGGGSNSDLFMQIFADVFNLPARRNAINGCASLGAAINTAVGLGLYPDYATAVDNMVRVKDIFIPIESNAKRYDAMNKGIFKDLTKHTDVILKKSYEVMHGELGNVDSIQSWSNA
UniProt P75838, whole entry: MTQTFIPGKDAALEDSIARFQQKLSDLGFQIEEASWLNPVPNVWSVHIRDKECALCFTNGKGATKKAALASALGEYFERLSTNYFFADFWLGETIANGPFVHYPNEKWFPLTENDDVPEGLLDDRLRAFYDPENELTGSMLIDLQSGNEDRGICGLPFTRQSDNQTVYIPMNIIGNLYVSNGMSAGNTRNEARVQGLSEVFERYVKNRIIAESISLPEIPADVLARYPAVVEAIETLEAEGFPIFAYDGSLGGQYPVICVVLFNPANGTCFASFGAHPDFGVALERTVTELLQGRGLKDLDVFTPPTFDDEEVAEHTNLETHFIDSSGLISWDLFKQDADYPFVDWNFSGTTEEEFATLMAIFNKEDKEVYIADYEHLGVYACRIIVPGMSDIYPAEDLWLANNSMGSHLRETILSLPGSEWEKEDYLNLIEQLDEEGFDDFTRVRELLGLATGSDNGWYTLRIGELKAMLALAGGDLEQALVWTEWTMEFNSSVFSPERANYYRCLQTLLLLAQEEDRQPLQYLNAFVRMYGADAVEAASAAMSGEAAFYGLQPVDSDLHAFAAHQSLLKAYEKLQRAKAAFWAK
UniProt P75811: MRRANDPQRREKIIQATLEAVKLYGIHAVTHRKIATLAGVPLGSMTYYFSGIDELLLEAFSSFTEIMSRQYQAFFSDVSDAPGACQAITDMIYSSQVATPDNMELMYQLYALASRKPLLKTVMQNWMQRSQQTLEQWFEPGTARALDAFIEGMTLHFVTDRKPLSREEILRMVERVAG
UniProt P75734: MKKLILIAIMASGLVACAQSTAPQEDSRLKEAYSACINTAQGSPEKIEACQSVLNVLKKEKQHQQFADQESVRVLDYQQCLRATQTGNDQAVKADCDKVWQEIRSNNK
UniProt P52052: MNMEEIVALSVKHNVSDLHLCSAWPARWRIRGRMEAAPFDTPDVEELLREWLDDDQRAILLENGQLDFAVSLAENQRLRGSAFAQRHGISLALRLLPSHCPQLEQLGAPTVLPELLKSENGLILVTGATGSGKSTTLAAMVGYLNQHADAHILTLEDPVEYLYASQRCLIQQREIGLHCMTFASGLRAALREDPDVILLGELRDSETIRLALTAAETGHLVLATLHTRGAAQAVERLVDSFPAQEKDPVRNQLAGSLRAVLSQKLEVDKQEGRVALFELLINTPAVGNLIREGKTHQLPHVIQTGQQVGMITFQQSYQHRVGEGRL
UniProt P75797: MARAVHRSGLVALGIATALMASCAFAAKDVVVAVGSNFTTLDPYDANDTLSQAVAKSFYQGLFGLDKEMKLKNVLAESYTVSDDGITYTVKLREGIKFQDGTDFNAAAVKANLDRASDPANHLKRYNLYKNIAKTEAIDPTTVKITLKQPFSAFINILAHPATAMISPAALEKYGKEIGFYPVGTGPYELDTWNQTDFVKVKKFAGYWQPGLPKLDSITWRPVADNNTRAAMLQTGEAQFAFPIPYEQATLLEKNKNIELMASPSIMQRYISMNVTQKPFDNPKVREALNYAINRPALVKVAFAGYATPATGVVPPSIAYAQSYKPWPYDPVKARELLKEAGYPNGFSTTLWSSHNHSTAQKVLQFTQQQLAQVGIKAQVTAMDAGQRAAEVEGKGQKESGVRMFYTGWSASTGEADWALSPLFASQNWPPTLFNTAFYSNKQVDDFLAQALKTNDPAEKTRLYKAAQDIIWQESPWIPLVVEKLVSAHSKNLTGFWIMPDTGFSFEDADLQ
UniProt P75822: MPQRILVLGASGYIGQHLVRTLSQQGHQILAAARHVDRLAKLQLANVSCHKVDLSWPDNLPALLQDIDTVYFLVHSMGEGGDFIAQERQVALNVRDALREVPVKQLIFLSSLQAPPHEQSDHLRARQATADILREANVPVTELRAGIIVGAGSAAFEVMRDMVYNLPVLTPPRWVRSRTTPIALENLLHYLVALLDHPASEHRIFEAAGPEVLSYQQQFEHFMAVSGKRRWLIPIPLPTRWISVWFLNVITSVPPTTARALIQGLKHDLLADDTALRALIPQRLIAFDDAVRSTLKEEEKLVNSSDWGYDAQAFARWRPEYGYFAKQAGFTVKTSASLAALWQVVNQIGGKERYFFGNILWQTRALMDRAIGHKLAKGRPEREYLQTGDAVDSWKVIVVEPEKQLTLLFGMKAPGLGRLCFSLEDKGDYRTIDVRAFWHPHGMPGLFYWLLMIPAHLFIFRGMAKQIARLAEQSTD
UniProt P52647: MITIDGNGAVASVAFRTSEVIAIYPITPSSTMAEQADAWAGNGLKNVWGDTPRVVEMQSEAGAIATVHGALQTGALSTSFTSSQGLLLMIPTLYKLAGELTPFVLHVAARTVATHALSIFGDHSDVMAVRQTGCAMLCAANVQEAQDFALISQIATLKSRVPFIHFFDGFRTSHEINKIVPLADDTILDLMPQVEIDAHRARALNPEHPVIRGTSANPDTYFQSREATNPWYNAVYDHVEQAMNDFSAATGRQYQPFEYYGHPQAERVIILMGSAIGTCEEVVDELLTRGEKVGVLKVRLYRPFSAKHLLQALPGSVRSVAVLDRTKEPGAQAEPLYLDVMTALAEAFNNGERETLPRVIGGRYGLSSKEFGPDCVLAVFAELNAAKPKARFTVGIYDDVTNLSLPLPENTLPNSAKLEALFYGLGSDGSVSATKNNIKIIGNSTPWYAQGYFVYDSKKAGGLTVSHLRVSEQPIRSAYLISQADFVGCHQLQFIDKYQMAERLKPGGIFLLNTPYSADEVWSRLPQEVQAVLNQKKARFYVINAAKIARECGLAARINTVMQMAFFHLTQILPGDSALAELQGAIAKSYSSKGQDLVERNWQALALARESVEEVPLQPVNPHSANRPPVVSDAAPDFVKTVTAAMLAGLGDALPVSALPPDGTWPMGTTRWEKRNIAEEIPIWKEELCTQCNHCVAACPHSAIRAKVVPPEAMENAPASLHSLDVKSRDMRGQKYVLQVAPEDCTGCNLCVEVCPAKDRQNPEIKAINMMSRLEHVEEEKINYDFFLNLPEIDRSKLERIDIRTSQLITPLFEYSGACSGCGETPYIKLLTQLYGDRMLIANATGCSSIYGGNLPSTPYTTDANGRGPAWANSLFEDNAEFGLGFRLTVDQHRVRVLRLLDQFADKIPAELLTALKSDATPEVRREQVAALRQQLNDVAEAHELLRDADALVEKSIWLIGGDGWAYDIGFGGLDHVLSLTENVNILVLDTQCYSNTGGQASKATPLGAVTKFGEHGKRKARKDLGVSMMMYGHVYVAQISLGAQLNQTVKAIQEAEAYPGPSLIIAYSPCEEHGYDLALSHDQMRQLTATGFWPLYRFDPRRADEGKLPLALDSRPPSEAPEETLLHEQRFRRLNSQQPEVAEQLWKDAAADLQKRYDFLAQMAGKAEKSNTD
UniProt P52106: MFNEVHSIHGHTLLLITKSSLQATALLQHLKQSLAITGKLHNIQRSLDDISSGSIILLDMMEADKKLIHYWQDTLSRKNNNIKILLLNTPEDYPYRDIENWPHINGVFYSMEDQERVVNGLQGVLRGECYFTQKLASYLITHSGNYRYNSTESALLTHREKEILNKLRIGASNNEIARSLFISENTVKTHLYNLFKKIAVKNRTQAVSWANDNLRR
UniProt P75746: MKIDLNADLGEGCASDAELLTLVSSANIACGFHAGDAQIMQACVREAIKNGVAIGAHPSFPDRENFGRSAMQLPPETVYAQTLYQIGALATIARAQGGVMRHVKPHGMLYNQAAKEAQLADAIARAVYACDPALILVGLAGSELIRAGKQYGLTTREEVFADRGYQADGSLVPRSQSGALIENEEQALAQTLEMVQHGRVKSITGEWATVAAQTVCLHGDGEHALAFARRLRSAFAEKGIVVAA
UniProt P64588: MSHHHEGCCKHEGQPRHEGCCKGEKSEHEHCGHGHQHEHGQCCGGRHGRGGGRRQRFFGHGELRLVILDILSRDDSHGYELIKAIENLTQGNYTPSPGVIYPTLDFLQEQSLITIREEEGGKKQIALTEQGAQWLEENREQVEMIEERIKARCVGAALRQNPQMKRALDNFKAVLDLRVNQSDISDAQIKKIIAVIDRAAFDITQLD

Question: With “UniProt P52133 (peptide sequence: LVAGETLSVR, peptide start residue: 22)” as the target, how does the log2 fold change read?
Answer: 0.016

Question: How did the log2 fold change turn out when “UniProt P75863 (peptide sequence: FTPSPVHDGLHLTAPDGSSAYVR, peptide start residue: 57)” was run?
Answer: 0.235

Question: With “UniProt P52044 (peptide sequence: NHRYTATMLQHIAEDR, peptide start residue: 278)” as the target, how does the log2 fold change read?
Answer: -0.13

Question: With “UniProt P75767 (peptide sequence: VVALGGGHGLGR, peptide start residue: 12)” as the target, how does the log2 fold change read?
Answer: 0.255

Question: Which log2 fold change does the source give for “UniProt P75785 (peptide sequence: LSGMKDTWTVTAVKPK, peptide start residue: 200)” here?
Answer: -1.49

Question: For “UniProt P52101 (peptide sequence: AMIFEPFFQGSHQR, peptide start residue: 414)”, which log2 fold change is on record?
Answer: -0.186

Question: With “UniProt P75829 (peptide sequence: ACHGLFPK, peptide start residue: 219)” as the target, how does the log2 fold change read?
Answer: 0.239

Question: How did the log2 fold change turn out when “UniProt P45955 (peptide sequence: VGVIMQDK, peptide start residue: 223)” was run?
Answer: 0.158

Question: Which log2 fold change does the source give for “UniProt P61517 (peptide sequence: FLWIGCSDSR, peptide start residue: 37)” here?
Answer: -0.364

Question: With “UniProt P52074 (peptide sequence: YHNLLDIGR, peptide start residue: 91)” as the target, how does the log2 fold change read?
Answer: -0.198

Question: How did the log2 fold change turn out when “UniProt P55138 (peptide sequence: YIIGIDGGSQSTK, peptide start residue: 5)” was run?
Answer: 0.346

Question: For “UniProt P75838 (peptide sequence: DKECALCFTNGK, peptide start residue: 50)”, which log2 fold change is on record?
Answer: 0.175

Question: With “UniProt P52129 (peptide sequence: QEDGKANIVQQEVAR, peptide start residue: 194)” as the target, how does the log2 fold change read?
Answer: -0.176

Question: With “UniProt P51981 (peptide sequence: GRYEMVNIK, peptide start residue: 239)” as the target, how does the log2 fold change read?
Answer: -1.08

Question: How did the log2 fold change turn out when “UniProt P75811 (peptide sequence: IIQATLEAVK, peptide start residue: 13)” was run?
Answer: -0.203

Question: “UniProt P75734 (peptide sequence: VLDYQQCLR, peptide start residue: 74)” was tested. Which log2 fold change did it give?
Answer: -0.142

Question: “UniProt P52095 (peptide sequence: KYTFCTPGHMGGTAYQK, peptide start residue: 144)” was tested. Which log2 fold change did it give?
Answer: -0.256

Question: How did the log2 fold change turn out when “UniProt P52052 (peptide sequence: EIGLHCMTFASGLR, peptide start residue: 174)” was run?
Answer: 0.141

Question: Which log2 fold change does the source give for “UniProt P52643 (peptide sequence: GALIDSQAAIEALKNQK, peptide start residue: 235)” here?
Answer: -0.0754

Question: “UniProt P52612 (peptide sequence: GQHVLLIMDSLTR, peptide start residue: 264)” was tested. Which log2 fold change did it give?
Answer: -0.331

Question: Which log2 fold change does the source give for “UniProt P50456 (peptide sequence: QTNAGAVYR, peptide start residue: 15)” here?
Answer: 0.483

Question: For “UniProt P75797 (peptide sequence: LDSITWRPVADNNTR, peptide start residue: 215)”, which log2 fold change is on record?
Answer: -0.283

Question: Which log2 fold change does the source give for “UniProt P75801 (peptide sequence: EAIINNHFER, peptide start residue: 263)” here?
Answer: 0.32

Question: With “UniProt P46889 (peptide sequence: AAGIHLVLATQRPSVDVITGLIK, peptide start residue: 1147)” as the target, how does the log2 fold change read?
Answer: 0.53

Question: Which log2 fold change does the source give for “UniProt P46883 (peptide sequence: NWDFHLSMNSR, peptide start residue: 357)” here?
Answer: -0.755

Question: “UniProt P46837 (peptide sequence: FVEDPHTVVK, peptide start residue: 687)” was tested. Which log2 fold change did it give?
Answer: 0.125

Question: How did the log2 fold change turn out when “UniProt P75822 (peptide sequence: HDLLADDTALR, peptide start residue: 267)” was run?
Answer: -0.23

Question: “UniProt P52647 (peptide sequence: LLDQFADKIPAELLTALK, peptide start residue: 900)” was tested. Which log2 fold change did it give?
Answer: -0.634

Question: “UniProt P69922 (peptide sequence: YGEDENNK, peptide start residue: 240)” was tested. Which log2 fold change did it give?
Answer: -0.453

Question: Which log2 fold change does the source give for “UniProt P52106 (peptide sequence: TQAVSWANDNLRR, peptide start residue: 204)” here?
Answer: -0.318

Question: How did the log2 fold change turn out when “UniProt P75746 (peptide sequence: EAQLADAIAR, peptide start residue: 116)” was run?
Answer: -0.114

Question: For “UniProt P64588 (peptide sequence: EQVEMIEER, peptide start residue: 140)”, which log2 fold change is on record?
Answer: 0.143

Question: “UniProt P75794 (peptide sequence: HVADAPFK, peptide start residue: 184)” was tested. Which log2 fold change did it give?
Answer: 0.502

Reference: the supplement of paper PMC12819154, “High-throughput peptide-centric local stability assay extends protein–ligand identification to membrane proteins, tissues and bacteria” (Nature Structural & Molecular Biology, 2025)
